Experimental data: the supplement of paper PMC11732987, “Enantioselective OTUD7B fragment discovery through chemoproteomics screening and high-throughput optimisation” (Communications Chemistry, 2025)
The other results are listed elsewhere or left out. The data scatter; read single values as rough.

Protein sequences, listed by entry. Tags and fused reporters are not part of them. Lines headed by an entry give the natural chain unless they say otherwise; changes in a name come on top.
UniProt O75146: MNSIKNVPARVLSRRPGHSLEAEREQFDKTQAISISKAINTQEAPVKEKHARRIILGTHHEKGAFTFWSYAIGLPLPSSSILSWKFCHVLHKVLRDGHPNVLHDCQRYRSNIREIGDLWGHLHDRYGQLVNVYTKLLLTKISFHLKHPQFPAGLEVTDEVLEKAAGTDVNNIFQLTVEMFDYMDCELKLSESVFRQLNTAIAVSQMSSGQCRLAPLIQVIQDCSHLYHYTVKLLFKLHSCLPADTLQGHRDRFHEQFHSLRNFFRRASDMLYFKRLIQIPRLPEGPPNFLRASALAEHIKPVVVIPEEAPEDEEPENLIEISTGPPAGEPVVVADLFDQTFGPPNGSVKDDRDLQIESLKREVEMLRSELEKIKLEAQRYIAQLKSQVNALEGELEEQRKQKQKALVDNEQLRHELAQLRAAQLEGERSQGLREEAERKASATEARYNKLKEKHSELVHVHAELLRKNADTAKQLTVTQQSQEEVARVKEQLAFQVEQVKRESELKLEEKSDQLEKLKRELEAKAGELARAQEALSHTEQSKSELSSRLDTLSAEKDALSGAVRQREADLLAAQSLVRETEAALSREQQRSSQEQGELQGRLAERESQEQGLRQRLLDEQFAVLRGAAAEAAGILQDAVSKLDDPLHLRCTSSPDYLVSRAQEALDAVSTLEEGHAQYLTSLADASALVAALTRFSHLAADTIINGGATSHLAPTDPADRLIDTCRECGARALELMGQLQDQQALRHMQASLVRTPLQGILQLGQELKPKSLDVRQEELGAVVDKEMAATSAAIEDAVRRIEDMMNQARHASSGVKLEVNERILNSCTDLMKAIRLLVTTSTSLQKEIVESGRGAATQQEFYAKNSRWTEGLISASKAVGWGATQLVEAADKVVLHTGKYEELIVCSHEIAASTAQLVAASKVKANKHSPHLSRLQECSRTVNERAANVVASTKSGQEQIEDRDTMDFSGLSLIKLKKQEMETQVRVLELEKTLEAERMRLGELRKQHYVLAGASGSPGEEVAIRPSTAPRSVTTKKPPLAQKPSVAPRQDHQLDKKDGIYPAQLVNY
UniProt Q1KMD3: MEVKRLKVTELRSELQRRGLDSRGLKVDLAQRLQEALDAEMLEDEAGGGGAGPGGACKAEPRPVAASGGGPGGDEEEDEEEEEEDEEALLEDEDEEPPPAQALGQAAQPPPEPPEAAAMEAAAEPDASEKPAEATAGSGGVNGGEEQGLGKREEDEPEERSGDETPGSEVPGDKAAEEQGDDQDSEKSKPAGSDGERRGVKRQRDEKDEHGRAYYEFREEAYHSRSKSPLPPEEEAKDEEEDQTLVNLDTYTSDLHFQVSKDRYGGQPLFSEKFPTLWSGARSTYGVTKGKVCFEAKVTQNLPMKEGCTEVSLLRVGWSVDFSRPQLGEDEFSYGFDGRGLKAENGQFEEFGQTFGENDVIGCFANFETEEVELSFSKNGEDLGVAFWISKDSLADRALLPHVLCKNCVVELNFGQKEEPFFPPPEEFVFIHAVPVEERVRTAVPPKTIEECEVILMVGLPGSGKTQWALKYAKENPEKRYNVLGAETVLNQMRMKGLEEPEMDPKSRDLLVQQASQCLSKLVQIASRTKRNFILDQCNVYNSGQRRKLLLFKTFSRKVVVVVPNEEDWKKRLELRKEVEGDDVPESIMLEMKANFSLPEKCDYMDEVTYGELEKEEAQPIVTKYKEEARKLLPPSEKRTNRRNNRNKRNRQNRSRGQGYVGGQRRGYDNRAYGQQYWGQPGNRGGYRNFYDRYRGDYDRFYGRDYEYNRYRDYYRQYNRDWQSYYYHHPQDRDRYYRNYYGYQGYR
UniProt Q8NCD3, whole entry, looked up: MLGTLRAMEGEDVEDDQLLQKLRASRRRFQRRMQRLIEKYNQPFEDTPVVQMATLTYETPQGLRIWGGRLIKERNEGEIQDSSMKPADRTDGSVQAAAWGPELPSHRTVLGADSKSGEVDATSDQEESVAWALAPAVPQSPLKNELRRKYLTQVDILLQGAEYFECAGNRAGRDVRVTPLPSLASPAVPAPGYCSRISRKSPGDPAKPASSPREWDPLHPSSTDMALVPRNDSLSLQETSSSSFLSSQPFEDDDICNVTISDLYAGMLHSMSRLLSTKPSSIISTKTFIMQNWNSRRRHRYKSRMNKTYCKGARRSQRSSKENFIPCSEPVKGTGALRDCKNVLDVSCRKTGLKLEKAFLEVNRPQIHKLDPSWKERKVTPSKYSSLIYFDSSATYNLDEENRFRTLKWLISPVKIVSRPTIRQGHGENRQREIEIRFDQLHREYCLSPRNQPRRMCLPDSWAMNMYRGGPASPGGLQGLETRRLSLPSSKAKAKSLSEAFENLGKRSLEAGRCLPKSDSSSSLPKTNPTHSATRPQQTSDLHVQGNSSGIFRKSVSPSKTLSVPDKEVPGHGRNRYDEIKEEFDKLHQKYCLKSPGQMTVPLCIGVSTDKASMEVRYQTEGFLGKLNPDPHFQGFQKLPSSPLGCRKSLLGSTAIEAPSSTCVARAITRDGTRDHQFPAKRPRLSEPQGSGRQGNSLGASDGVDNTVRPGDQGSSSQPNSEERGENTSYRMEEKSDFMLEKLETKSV
UniProt Q5JVS0: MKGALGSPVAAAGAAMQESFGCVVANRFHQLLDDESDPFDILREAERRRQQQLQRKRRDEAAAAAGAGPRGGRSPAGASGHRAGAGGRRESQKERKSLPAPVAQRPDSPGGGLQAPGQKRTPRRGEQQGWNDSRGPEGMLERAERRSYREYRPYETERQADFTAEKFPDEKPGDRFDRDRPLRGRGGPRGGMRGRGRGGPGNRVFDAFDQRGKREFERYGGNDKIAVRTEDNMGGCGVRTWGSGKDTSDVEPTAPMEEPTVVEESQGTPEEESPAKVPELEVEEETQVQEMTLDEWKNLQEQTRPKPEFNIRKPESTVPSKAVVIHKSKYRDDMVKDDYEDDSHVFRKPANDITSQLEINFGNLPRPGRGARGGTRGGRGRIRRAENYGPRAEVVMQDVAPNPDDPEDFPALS
UniProt O94927: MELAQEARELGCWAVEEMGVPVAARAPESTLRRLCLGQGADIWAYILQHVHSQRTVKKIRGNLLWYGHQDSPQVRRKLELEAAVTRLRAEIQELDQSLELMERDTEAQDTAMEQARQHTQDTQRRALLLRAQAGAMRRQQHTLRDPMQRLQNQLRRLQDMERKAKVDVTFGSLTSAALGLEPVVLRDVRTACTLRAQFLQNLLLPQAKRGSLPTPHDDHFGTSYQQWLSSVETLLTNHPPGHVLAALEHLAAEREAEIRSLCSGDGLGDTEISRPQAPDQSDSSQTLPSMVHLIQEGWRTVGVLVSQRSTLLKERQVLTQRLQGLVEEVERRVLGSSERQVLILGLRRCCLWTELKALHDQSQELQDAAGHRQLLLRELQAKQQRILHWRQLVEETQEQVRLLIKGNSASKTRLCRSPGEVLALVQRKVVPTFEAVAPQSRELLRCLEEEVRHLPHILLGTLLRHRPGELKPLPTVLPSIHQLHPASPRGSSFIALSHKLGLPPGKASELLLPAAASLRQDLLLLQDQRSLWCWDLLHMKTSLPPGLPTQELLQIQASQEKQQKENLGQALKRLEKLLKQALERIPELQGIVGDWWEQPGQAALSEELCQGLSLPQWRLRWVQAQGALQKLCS
UniProt Q96CS2: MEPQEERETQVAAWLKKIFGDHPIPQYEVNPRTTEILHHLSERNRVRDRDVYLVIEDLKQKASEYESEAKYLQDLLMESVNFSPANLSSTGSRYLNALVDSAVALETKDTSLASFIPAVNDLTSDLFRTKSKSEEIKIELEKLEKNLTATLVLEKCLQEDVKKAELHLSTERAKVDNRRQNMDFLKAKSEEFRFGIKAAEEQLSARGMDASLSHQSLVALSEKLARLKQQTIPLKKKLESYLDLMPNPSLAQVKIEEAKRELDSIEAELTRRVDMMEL
UniProt P19367: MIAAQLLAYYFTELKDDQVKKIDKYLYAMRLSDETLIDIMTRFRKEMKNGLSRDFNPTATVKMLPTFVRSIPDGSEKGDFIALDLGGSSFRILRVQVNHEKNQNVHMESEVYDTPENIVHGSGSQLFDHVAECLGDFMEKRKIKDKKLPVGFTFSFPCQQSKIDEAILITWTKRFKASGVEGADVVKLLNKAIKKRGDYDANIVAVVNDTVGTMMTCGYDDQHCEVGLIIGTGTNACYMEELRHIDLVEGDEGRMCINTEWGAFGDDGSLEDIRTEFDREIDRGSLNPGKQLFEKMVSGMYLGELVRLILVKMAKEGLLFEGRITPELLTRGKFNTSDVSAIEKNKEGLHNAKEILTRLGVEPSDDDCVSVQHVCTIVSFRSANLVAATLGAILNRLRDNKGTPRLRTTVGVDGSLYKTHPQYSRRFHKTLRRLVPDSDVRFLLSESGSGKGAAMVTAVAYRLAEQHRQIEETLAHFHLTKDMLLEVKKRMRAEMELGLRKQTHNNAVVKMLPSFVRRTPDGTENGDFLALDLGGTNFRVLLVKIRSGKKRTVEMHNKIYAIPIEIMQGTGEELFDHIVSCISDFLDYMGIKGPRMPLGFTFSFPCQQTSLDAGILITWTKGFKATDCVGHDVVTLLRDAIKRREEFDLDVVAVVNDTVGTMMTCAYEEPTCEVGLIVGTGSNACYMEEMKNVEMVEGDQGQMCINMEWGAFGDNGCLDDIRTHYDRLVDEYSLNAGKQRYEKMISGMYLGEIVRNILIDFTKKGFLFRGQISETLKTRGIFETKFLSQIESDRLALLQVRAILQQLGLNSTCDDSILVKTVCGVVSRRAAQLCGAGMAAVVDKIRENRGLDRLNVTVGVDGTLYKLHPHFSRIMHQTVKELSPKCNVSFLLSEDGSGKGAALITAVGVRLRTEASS
UniProt Q9UJC3: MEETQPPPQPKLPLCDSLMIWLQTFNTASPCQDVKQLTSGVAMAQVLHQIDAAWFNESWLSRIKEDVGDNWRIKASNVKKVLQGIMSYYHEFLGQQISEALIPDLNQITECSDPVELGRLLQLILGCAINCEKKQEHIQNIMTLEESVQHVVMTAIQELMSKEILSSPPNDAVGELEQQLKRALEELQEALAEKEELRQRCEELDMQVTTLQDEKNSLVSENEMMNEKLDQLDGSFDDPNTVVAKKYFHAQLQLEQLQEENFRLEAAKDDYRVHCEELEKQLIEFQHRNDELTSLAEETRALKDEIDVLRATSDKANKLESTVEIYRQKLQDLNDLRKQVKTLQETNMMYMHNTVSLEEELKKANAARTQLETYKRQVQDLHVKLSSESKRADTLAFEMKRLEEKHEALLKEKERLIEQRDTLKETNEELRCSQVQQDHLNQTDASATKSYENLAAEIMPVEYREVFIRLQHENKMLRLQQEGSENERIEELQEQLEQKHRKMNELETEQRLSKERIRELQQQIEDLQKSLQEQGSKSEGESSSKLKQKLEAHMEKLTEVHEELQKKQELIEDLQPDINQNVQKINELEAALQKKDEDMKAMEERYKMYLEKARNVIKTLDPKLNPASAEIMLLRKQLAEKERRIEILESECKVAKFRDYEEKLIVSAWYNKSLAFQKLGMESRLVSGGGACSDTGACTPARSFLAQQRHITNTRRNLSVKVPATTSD
UniProt O00291: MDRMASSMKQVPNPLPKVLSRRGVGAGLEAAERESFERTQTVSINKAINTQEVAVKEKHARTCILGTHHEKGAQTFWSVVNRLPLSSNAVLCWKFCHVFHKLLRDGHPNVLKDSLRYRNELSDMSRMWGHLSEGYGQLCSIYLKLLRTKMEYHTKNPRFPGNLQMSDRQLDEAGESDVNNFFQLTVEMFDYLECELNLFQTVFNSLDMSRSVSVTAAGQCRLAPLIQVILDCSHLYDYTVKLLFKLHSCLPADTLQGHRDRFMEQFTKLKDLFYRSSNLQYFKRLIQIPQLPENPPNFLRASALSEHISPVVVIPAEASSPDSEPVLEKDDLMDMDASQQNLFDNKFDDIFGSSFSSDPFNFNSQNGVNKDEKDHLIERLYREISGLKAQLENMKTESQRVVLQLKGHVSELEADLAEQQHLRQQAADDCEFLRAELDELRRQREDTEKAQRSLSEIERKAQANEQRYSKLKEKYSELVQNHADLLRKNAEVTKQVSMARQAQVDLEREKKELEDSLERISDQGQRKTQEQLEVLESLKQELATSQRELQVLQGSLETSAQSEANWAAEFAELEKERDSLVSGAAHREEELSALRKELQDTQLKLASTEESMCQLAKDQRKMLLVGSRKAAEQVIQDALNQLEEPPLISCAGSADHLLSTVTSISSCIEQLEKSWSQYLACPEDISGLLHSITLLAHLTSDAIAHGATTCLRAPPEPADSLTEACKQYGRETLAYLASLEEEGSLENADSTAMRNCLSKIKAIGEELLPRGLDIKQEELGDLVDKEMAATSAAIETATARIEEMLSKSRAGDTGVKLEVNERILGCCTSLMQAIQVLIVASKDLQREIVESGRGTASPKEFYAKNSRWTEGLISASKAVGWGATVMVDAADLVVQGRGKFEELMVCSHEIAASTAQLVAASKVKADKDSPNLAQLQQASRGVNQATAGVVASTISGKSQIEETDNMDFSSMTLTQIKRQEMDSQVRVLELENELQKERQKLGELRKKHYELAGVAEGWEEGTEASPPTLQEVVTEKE

compound: ClCC(=O)N[C@@H]1CCCc2ccccc12; assay: log2 mean competition ratio of IA-DTB cysteine labelling (DMSO/compound) (log2 ratio); higher = stronger cysteine engagement by compound; settings: 50 µM; treatment time: 4 h; cell line lysate: HEK293T
Method: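 IA-DTB competitive cysteine chemoproteomics in HEK293T RIPA lysate. Lysates were treated with compound 29 or 30 at 50 or 200 µM for 4 h, then IA-DTB (500 µM, 1 h), trypsin-digested, NeutrAvidin-enriched and analysed by diaPASEF. Competition ratio = intensity DMSO / intensity compound (n=4 treated, n=64 DMSO); binding: mean log2 CR ≥ 1 and p ≤ 0.05 plus QC filters. Target is the cysteine site.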

**Q.** Which “log2 mean competition ratio” value does the source give for HK2 C813 (UniProt P52789) here?
**A.** 0.239

**Q.** With GTF3C4 C174 (UniProt Q9UKN8) as the target, how does the “log2 mean competition ratio” value read?
**A.** 0.426

**Q.** How did the “log2 mean competition ratio” value turn out when HIP1R C650 (UniProt O75146) was run?
**A.** -0.181

**Q.** With HDDC3 C133 (UniProt Q8N4P3) as the target, how does the “log2 mean competition ratio” value read?
**A.** -0.0353

**Q.** How did the “log2 mean competition ratio” value turn out when HELLS C836 (UniProt Q9NRZ9) was run?
**A.** 0.147

**Q.** For HNRNPD C126, which “log2 mean competition ratio” value is on record?
**A.** -0.278

**Q.** For HNRNPUL2 C308 (UniProt Q1KMD3), which “log2 mean competition ratio” value is on record?
**A.** 0.198

**Q.** How did the “log2 mean competition ratio” value turn out when HDAC4 C194 (UniProt P56524) was run?
**A.** 0.0568

**Q.** For GTF2E1 C42 (UniProt P29083), which “log2 mean competition ratio” value is on record?
**A.** 0.156

**Q.** Which “log2 mean competition ratio” value does the source give for HECTD4 C1084 here?
**A.** -0.0593

**Q.** How did the “log2 mean competition ratio” value turn out when HECTD1 C369 (UniProt Q9ULT8) was run?
**A.** -0.19

**Q.** For HJURP C327 (UniProt Q8NCD3), which “log2 mean competition ratio” value is on record?
**A.** -0.0124

**Q.** HABP4 C236 (UniProt Q5JVS0) was tested. Which “log2 mean competition ratio” value did it give?
**A.** -0.124

**Q.** HAUS5 C446 (UniProt O94927) was tested. Which “log2 mean competition ratio” value did it give?
**A.** -0.102

**Q.** With HNRNPA2B1 C50 (UniProt P22626) as the target, how does the “log2 mean competition ratio” value read?
**A.** -0.0278

**Q.** HEATR5B C625 (UniProt Q9P2D3) was tested. Which “log2 mean competition ratio” value did it give?
**A.** 0.357

**Q.** Which “log2 mean competition ratio” value does the source give for HAUS1 C156 (UniProt Q96CS2) here?
**A.** -0.197

**Q.** With H3-7 C111 as the target, how does the “log2 mean competition ratio” value read?
**A.** 0.147

**Q.** Which “log2 mean competition ratio” value does the source give for HK1 C886 (UniProt P19367) here?
**A.** 0.107

**Q.** GUSB C644 (UniProt P08236) was tested. Which “log2 mean competition ratio” value did it give?
**A.** -0.2

**Q.** For HECTD1 C123 (UniProt Q9ULT8), which “log2 mean competition ratio” value is on record?
**A.** -0.0521

**Q.** How did the “log2 mean competition ratio” value turn out when HGS C75 (UniProt O14964) was run?
**A.** 0.0757

**Q.** HOOK1 C432 (UniProt Q9UJC3) was tested. Which “log2 mean competition ratio” value did it give?
**A.** 0.369

**Q.** For GSTM3 C119 (UniProt P21266), which “log2 mean competition ratio” value is on record?
**A.** 0.0298

**Q.** For GTF2F2 C116 (UniProt P13984), which “log2 mean competition ratio” value is on record?
**A.** 0.277

**Q.** HK1 C834 (UniProt P19367) was tested. Which “log2 mean competition ratio” value did it give?
**A.** 0.0429

**Q.** HAPLN3 C233 was tested. Which “log2 mean competition ratio” value did it give?
**A.** -0.116

**Q.** With HIP1 C63 (UniProt O00291) as the target, how does the “log2 mean competition ratio” value read?
**A.** 0.341
